Laboratory results: PubChem BioAssay AID1508588 (Peter MacCallum Cancer Centre, 2020)

- Assay: 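Which gene losses make BRAF-mutant melanoma cells more responsive to vemurafenib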 (primary screen)
- Cells: human WM266.4 melanoma cells (BRAF V600 mutant)
- Reagent: siRNA pool against human genes, 40 nM
- Timing: 96 h from transfection to read-out
- Treatment: vemurafenib 300 nM (about IC25), added 48 h after transfection, for 48 h; comparison arm got DMSO vehicle only
- Measured: 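Cell gain (DAPI nuclei at end minus before drug, mean of two replicates) and medium lactate by absorbance per cell, both as ratio to non-targeting siRNA, also grouped into fold-change classes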
- Scale: cell gain with vemurafenib: higher = more cell gain than with non-targeting siRNA; lactate per cell with vemurafenib: higher = more lactate made per cell
- Hit rule: 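a knock-down counts as enhancing when its fold-change classes with vehicle and with vemurafenib, taken together, show a stronger drug effect on cell gain or lactate per cell; exact class pairs not stated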
- Calls: active = enhances vemurafenib effect; inactive = no enhancement seen
This is one part, drawn at random, of about 18,000 deposited reagents. 790 of them (4.4%) count as active. 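Calls rest on a combination of fold-change classes in drug and vehicle arms, not all shown here.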 No sequences are given here.

gene knocked down,cell gain with vemurafenib,lactate per cell with vemurafenib,activity call
CD47 (CD47 molecule),0.48,1.06,inactive
SIL1 (SIL1 nucleotide exchange factor),0.95,0.5,inactive
HSD11B2 (hydroxysteroid 11-beta dehydrogenase 2),0.25,1.08,inactive
TMX2 (thioredoxin related transmembrane protein 2),0.28,1.7,inactive
PLAA (phospholipase A2 activating protein),-0.01,1.28,inactive
SLC25A46,0.85,0.74,inactive
OR2T1 (olfactory receptor family 2 subfamily T member 1),0.35,1.2,inactive
HCAR2 (hydroxycarboxylic acid receptor 2),0.28,1.88,inactive
GRM5 (glutamate metabotropic receptor 5),0.25,0.86,inactive
PHF13 (PHD finger protein 13),1.04,0.64,inactive
TIPE2 (TNF alpha induced protein 8 like 2),0.97,0.47,active
GRIP1 (glutamate receptor interacting protein 1),0.21,0.92,inactive
ZNF254 (zinc finger protein 254),0.82,0.84,inactive
CIAO2B (cytosolic iron-sulfur assembly component 2B),0.98,0.88,inactive
SLC25A1,0.56,1.62,inactive
BUB1B (BUB1 mitotic checkpoint serine/threonine kinase B),0.62,0.72,inactive
IFI27 (interferon alpha inducible protein 27),0.58,0.84,inactive
SRP72 (signal recognition particle 72),0.32,1.62,inactive
ISG20L2 (interferon stimulated exonuclease gene 20 like 2),0.76,0.77,inactive
HSPB8 (heat shock protein family B (small) member 8),0.67,0.46,active
NOD1 (nucleotide binding oligomerization domain containing 1),0.9,1.02,inactive
ADAT2 (adenosine deaminase tRNA specific 2),0.85,1.15,inactive
PPP1CA (protein phosphatase 1 catalytic subunit alpha),0.58,0.52,inactive
ENTHD1 (ENTH domain containing 1),0.27,1.71,inactive
C15orf40 (chromosome 15 open reading frame 40),0.63,0.94,inactive
GET1 (guided entry of tail-anchored proteins factor 1),0.59,0.62,inactive
LILRB3 (leukocyte immunoglobulin like receptor B3),0.49,1.21,inactive
DCT (dopachrome tautomerase),0.16,1.34,inactive
ACSM2B (acyl-CoA synthetase medium chain family member 2B),0.88,0.53,inactive
PDS5B (PDS5 cohesin associated factor B),0.46,0.64,inactive
ZC3HC1 (zinc finger C3HC-type containing 1),0.54,0.64,inactive
CABP7 (calcium binding protein 7),0.9,0.69,inactive
TMEM40 (transmembrane protein 40),0.94,0.45,inactive

An excerpt from above, showing only “lactate per cell with vemurafenib”.
GRM5 (glutamate metabotropic receptor 5) = 0.86
PHF13 (PHD finger protein 13) = 0.64
TIPE2 (TNF alpha induced protein 8 like 2) = 0.47
GRIP1 (glutamate receptor interacting protein 1) = 0.92
ZNF254 (zinc finger protein 254) = 0.84
CIAO2B (cytosolic iron-sulfur assembly component 2B) = 0.88

Next records follow.
gene knocked down,cell gain with vemurafenib,lactate per cell with vemurafenib,activity call
CIC (capicua transcriptional repressor),1.16,0.35,inactive
DSCC1,0.58,0.52,inactive
TRIM7 (tripartite motif containing 7),1.04,0.88,inactive
ZDHHC24 (zDHHC palmitoyltransferase 24),0.16,1.11,inactive
MYL2 (myosin light chain 2),0.68,0.92,inactive
HGFAC (HGF activator),0.53,0.56,inactive
ITGB8 (integrin subunit beta 8),0.22,1.28,inactive
"MYB (MYB proto-oncogene, transcription factor)",0.73,0.97,inactive
HIPK3 (homeodomain interacting protein kinase 3),0.67,0.78,inactive
DCAKD (dephospho-CoA kinase domain containing),0.11,1.82,inactive
PAPPA2 (pappalysin 2),1.17,0.67,inactive
PKP3 (plakophilin 3),0.94,1.15,inactive
ANGPTL3 (angiopoietin like 3),0.9,0.88,inactive
ZNF565 (zinc finger protein 565),1.18,0.38,inactive
"GAPT (GRB2 binding adaptor protein, transmembrane)",0.4,0.99,inactive
RFX6 (regulatory factor X6),0.98,0.5,inactive
WDR27 (WD repeat domain 27),0.17,1.82,inactive
CHD4 (chromodomain helicase DNA binding protein 4),0.36,1.66,inactive
ISCU (iron-sulfur cluster assembly enzyme),-0.1,4.44,inactive
CDKN2C (cyclin dependent kinase inhibitor 2C),1.08,0.86,inactive
PSMA6 (proteasome 20S subunit alpha 6),0.09,1.7,inactive
IGSF22 (immunoglobulin superfamily member 22),1.09,0.7,inactive
LDHAL6A (lactate dehydrogenase A like 6A),0.83,0.45,inactive
SAGE1 (sarcoma antigen 1),0.36,0.64,inactive
